The experiment has as its target T1, mouse FYCO1, endogenous (mouse (endogenous in eyeballs)) (UniProt Q8VDC1).
T1 sequence: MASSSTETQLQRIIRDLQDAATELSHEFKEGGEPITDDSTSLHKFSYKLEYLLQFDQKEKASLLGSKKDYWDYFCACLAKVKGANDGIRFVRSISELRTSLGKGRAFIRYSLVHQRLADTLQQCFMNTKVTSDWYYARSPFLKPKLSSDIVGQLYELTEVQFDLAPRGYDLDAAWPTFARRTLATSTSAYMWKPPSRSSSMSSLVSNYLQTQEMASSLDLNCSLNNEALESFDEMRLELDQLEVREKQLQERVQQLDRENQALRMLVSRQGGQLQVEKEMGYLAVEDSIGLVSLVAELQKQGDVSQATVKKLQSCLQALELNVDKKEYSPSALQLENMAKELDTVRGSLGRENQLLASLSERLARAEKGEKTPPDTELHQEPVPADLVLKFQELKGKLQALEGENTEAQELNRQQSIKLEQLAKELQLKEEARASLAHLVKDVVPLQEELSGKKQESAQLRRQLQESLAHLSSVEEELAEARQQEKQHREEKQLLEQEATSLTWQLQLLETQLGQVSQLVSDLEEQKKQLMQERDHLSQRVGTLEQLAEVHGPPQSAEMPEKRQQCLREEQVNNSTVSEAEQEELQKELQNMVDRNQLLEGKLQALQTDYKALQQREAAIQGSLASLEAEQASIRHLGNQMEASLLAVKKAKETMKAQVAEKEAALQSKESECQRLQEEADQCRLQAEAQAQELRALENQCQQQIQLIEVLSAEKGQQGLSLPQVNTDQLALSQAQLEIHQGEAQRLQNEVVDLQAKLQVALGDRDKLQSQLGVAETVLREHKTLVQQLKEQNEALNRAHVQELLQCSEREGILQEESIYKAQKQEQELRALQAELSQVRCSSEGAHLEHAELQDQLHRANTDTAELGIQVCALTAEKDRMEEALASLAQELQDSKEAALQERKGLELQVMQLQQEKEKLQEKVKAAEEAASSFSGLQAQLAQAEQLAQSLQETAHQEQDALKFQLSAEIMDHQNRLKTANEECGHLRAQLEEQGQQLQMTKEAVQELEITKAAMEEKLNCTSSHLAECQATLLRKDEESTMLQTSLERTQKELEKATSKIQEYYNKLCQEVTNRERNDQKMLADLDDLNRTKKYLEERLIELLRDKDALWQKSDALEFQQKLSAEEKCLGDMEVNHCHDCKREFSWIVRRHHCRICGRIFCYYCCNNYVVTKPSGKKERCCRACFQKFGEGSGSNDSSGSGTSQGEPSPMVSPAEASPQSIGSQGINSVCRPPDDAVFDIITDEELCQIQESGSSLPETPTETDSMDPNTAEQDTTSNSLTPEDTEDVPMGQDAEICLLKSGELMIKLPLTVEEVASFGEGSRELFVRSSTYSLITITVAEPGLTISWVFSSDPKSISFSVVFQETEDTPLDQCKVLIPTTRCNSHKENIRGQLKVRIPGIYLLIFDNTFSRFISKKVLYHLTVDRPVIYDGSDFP
Kind of experiment: co-IP; endogenous proteins; WT mouse eye lysate (10 mg, 1% Triton X-100 lysis buffer) immunoprecipitated with rabbit anti-FYCO1 or control antibody and protein A sepharose; blot with anti-αA or anti-αB crystallin.

Results are given in words; binding and its absence hold for the method and conditions named. In cells and extracts the contact can be indirect. Some entries that bind do so weakly or less than the wild type.

B1: mouse αB-crystallin, endogenous (protein, UniProt P23927 1-175)
chain: MDIAIHHPWIRRPFFPFHSPSRLFDQFFGEHLLESDLFSTATSLSPFYLRPPSFLRAPSWIDTGLSEMRLEKDRFSVNLDVKHFSPEELKVKVLGDVIEVHGKHEERQDEHGFISREFHRKYRIPADVDPLTITSSLSSDGVLTVNGPRKQVSGPERTIPITREEKPAVAAAPKK
B1: the binding entry was “binds”.

Source of the values: article PMC8253827.
